From PubChem BioAssay AID1508600 (Functional Genomics Laboratory (NCATS/FGL), 2020)
About 3,700 (7%) of roughly 53,000 sequences were called active.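 The calls were made as follows: active = gene knockdowns whose robust z-score for IL-1 alpha signal is at least 2 or at most -2, so actives lie on both sides; inactive = the rest.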 Some of the results follow.

test: Components of the Cytosolic LPS Sensing Pathway: Gene Identification via Genome-wide siRNA Screen; details: RAW264.7 macrophages, IL-1a HTRF, actives lie on both sides, screened at 100 nM (by protocol), cells primed 5 h with Pam3CSK4 first;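 also: robust z of the log signal after scaling to non-targeting control siRNA wells of the plate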
Procedure, shortened: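 Using IL-1a HTRF as read-out, the screen measured release from RAW264.7 cells after 48h siRNA knockdown (100 nM), 5 h Pam3CSK4 priming and 24 h cytosolic LipidA. Values were expressed relative to negative-control wells as robust z-scores.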

| Sequence | z-score |
| --- | --- |
| GGAUUGUAAUCAAAUGUGCTT against Plekhh2 | inactive: 1.51 |
| CGACAUGAAGUGAUUCAUUTT against Zfp459 | inactive: 0.576 |
| GCAAAGUAUAGCUAUGUGCTT against Gm4759 | inactive: -0.936 |
| GGUCUACAAUGUGAAAAUCTT against Clnk | inactive: -0.989 |
| UGCUGGAUUCCAUUGACCUTT against Olfr675 | inactive: -1.46 |
| GGAAGGAUAUAAGACACAATT against Gbp4 | inactive: 0.943 |
| CCUAGUAUAUCUGUGUUGUTT against Wnk1 | inactive: -0.406 |
| CGGGUCUGCUCUUUGGAAATT against Yif1b | inactive: -0.471 |
| CCUACUACAUCCGCUACUGTT against Apba2 | inactive: -0.366 |
| GCUGUGUCGGUGUUGGAUGTT against Ap5z1 | inactive: 0.0827 |
| CCGCCUUUCUUACAACCAATT against Rpl41 | inactive: -0.146 |
| GCACAGGGAAUGUUGUAGATT against Polr3d | inactive: -0.696 |
| GCAGAUAAUCUAGCAAAGATT against Agps | inactive: 0.903 |
| GGGAAUGCUUAUGUAGGCATT against Aldh3b1 | inactive: -1.03 |
| UAGUCAUUGGGAUUCCUUCTT against Olfr112 | active: 2.98 |
| GCAAUUUCCUCUCGAGACGTT against Olfr750 | inactive: -0.328 |
| GGAGAGAGAGAAGAAGGAUTT against Zmat2 | inactive: -1.47 |
| GCCACGGGUAUAUCUAUAGTT against Tigd4 | inactive: -0.296 |
| GGAUAGAGUUAAUGAAAAGTT against Poc5 | inactive: 0.827 |
| GGUCUAUGCUGAUGCUUCUTT against Dhps | inactive: 1.5 |
| GGUCAAUUAUGAAGAGUUUTT against Calm3 | active: 3.04 |
| CGAAGUCUGAAACACAUGUTT against A730018C14Rik | active: 4.13 |

| Sequence | z-score |
| --- | --- |
| GGCUUUUCAAUUCCACCUUTT against Arid5b | inactive: 0.361 |
| GGAAGAAACACCAGUAAGATT against Hbp1 | inactive: -1.32 |
| GGAUCUAGAUACUUCUAGUTT against Tmub1 | inactive: -0.21 |
| GGAAAUCAGAGAGAAGAUGTT against Nubp1 | inactive: -1.53 |
| GGACGGAGCUGUAAUUGCATT against Arhgef12 | active: 2.16 |
| CGUGGAAGGCAAGAUGCAUTT against Pip4p1 | inactive: -0.889 |
| UUUCUUGGUGGGAUUGACUTT against Taar7b | inactive: -0.392 |
| GAUCACACAUAUCAUCUCUTT against Dusp15 | inactive: 0.963 |
| GGUACUGUCGGUAUCCCACTT against Gcc1 | inactive: -1.62 |
| CCACACCAGAGGUCUUUGATT against Pde4dip | inactive: -1.74 |
| GGACAAAGUCUAGAAACUATT against Lrrc2 | inactive: 0.26 |
| GGACCAAAUGUAAGAAAAATT against Cstl1 | inactive: -0.781 |
| GCCUCCUGAAUGACCACAUTT against Klk1b27 | active: 2.29 |
| GGAUAUCACCUUCGAGAUATT against Ankrd7 | inactive: -0.0496 |
| GGUGUUGUCUGUGUUUUACTT against Olfr507 | inactive: 0.23 |
| GUUACCCUGAAGGUCAAUATT against Gstm3 | inactive: 0.535 |
| CCAAUGUUACGAGAAACUUTT against Smug1 | inactive: 1.02 |
| GGGAAUCAGCAUACUUCCUTT against Krt74 | inactive: 1.61 |
| GGCAUCUAAAGGAAAGAAATT against 1810030O07Rik | inactive: -0.495 |
| GGAAUUUGUGGAGAAACUATT against Gabbr1 | inactive: -0.232 |
| GGAGAGAAUGUUUUGGAAUTT against Stat5b | inactive: 0.454 |
| GGACAGUGACAAACUGAACTT against Caml | inactive: 0.286 |

Reformatted: results already given.
Sequence	z-score
CCGCCUUUCUUACAACCAATT against Rpl41	inactive: -0.146
GCACAGGGAAUGUUGUAGATT against Polr3d	inactive: -0.696
GCAGAUAAUCUAGCAAAGATT against Agps	inactive: 0.903
GGGAAUGCUUAUGUAGGCATT against Aldh3b1	inactive: -1.03
UAGUCAUUGGGAUUCCUUCTT against Olfr112	active: 2.98
GCAAUUUCCUCUCGAGACGTT against Olfr750	inactive: -0.328
GGAGAGAGAGAAGAAGGAUTT against Zmat2	inactive: -1.47
GCCACGGGUAUAUCUAUAGTT against Tigd4	inactive: -0.296
GGAUAGAGUUAAUGAAAAGTT against Poc5	inactive: 0.827
GGUCUAUGCUGAUGCUUCUTT against Dhps	inactive: 1.5
GGUCAAUUAUGAAGAGUUUTT against Calm3	active: 3.04
CGAAGUCUGAAACACAUGUTT against A730018C14Rik	active: 4.13
GGCUUUUCAAUUCCACCUUTT against Arid5b	inactive: 0.361
GGAAGAAACACCAGUAAGATT against Hbp1	inactive: -1.32
GGAUCUAGAUACUUCUAGUTT against Tmub1	inactive: -0.21
GGAAAUCAGAGAGAAGAUGTT against Nubp1	inactive: -1.53
GGACGGAGCUGUAAUUGCATT against Arhgef12	active: 2.16
CGUGGAAGGCAAGAUGCAUTT against Pip4p1	inactive: -0.889
UUUCUUGGUGGGAUUGACUTT against Taar7b	inactive: -0.392
GAUCACACAUAUCAUCUCUTT against Dusp15	inactive: 0.963
GGUACUGUCGGUAUCCCACTT against Gcc1	inactive: -1.62
CCACACCAGAGGUCUUUGATT against Pde4dip	inactive: -1.74
GGACAAAGUCUAGAAACUATT against Lrrc2	inactive: 0.26
GGACCAAAUGUAAGAAAAATT against Cstl1	inactive: -0.781
GCCUCCUGAAUGACCACAUTT against Klk1b27	active: 2.29

Continued:

| Sequence | z-score |
| --- | --- |
| GGACUGCAUUCCUCUGAUCTT against Gm4876 | inactive: -0.838 |
| CCUAUAUUGAAUCUUCAACTT against Clptm1 | inactive: -0.726 |
| GGAUGAGAGUAAGAUCUCGTT against Vipr2 | inactive: -0.296 |
| CGUAAACUUAGGAAUUUUCTT against Ccdc66 | inactive: 1.86 |
| GGUCGUGCAUGACAACUAUTT against Itk | active: 2.62 |
| GGAACAUUCUGAGAAGAAATT against Cwf19l2 | inactive: -1.45 |
| AUUCAUUGGGAAAAAUUAUTT against Olfr127 | active: -2.38 |
| GAGUUGGCUCGAAACUGCCTT against Fbxl15 | active: 3.54 |
| GGCCUCUCAAAAUCUUCCUTT against Galnt11 | inactive: -1.46 |
| CCAUUCAAUGGUAACUGAATT against Olfr229 | inactive: -0.382 |
| CGCUUUAUUAGAUGGGCUATT against Dlx5 | active: -2.27 |
| GGAAAAUUCAGUUUAAUCCTT against Glt8d1 | inactive: 0.438 |
| GGCUUCAAUAGUUCUCCUATT against Rpl10 | inactive: 0.948 |
| GGAAAAGAACCAAAGAAUGTT against 5330439B14Rik | inactive: 0.738 |
| GGAAAUGAAAUAGUCUCGUTT against Dpm1 | inactive: 0.25 |
| GCCAGACACUUAAUCCCGUTT against Unc13d | inactive: 0.147 |
| GGGCUACACUUGCUGUACUTT against Gpc1 | inactive: 1.17 |
| CCUUAGGCUGACAUAAUAATT against Dnajb13 | inactive: 0.521 |
| GGAAAUUCUCUACUACUGATT against Unc5d | inactive: -1.65 |
| GGAACAUUUUGGAAAAGACTT against 1300017J02Rik | inactive: -0.0855 |
| GGAGAACUGUCAUAUGCUUTT against Cntn3 | inactive: -1.28 |
| GGGCUAGGUAGUGAUGGUCTT against Snrnp70 | inactive: -0.965 |

| Sequence | z-score |
| --- | --- |
| GGAUGAACCACCAUAUGUGTT against Olfr1188 | active: 4.69 |
| CCAAAUUAUUCUUGCUUUCTT against Chp1 | inactive: 1.2 |
| GGAAAAGAAGAAGUCAGAATT against Clmn | inactive: 0.106 |
| GGAGACGAAUCCUUUCAGUTT against Mis12 | inactive: 0.476 |
| CCCAGCAAAUUCAUUCUACTT against Spon2 | inactive: 0.191 |
| GCCUUGUACUGUGUAUAUATT against Gse1 | inactive: -0.954 |
| CCUAGUAGCCGAGAAACAUTT against Olfr1137 | inactive: -0.705 |
| GGACUGUUACAAAUGAAGUTT against Cxcl1 | inactive: -0.454 |
| GGCACUUACACGUUUGGAATT against Cry1 | inactive: 0.561 |
| GGUUCAACGCAAAGUUCGCTT against Aldh4a1 | inactive: 0.347 |
| GGUGCACUGAAGAACUCCATT against Olfr1494 | inactive: -0.773 |
| GGUAAAUCCUCUACCGCAUTT against Pvr | inactive: 1.23 |
| GGACGGGCUUCUAGUUGAATT against Vmn1r189 | inactive: -0.948 |
| GGUUGGUCUCCAAAGAUGGTT against Kcnj1 | inactive: -1.34 |
| CUCUCCAGACUCCUAUGUATT against Olfr1118 | inactive: -1.06 |
| GGUUCCAAUUGGAUAUUUGTT against Cysltr2 | inactive: 1.68 |
| GGCCUUCGUCAUCUUCAAGTT against Snrpa | inactive: 1.05 |
| GGCCCUGCAUUAUCCGAAATT against Pla2g4b | inactive: 0.201 |
| GGUCAUUGCUAUUCCGUACTT against Olfr536 | inactive: 0.266 |
| GGGUCAACAUCAUCUAUGGTT against Olfr616 | inactive: -0.15 |
| GGAACUGAAUGCGGAAUUCTT against Chil1 | inactive: 0.261 |
| GCGGAGAAACAGGACAACATT against Prrx1 | inactive: 1.42 |

Single entries from the results shown:
In z-score, GGAAAAGAAGAAGUCAGAATT against Clmn is entered as inactive: 0.106
In z-score, GGACUGUUACAAAUGAAGUTT against Cxcl1 is entered as inactive: -0.454

Further records:

| Sequence | z-score |
| --- | --- |
| CGUACAAGACAGGUCGGUCTT against Fbxw20 | inactive: 1.84 |
| GGAGACCUUCUGAAACUAATT against Zmym2 | inactive: 0.83 |
| CCGAGGUUUCAUAUUUCGGTT against Leng9 | inactive: -0.588 |
| GGAUGGGAUGAAAAUUGAATT against Papolg | inactive: -0.566 |
| GCUAUAUAAUGCUUAUGUGTT against Tpr | inactive: -0.501 |
| GCCCAGUUUGGUUAUGUAUTT against Yipf7 | inactive: 0.115 |
| CGGAGACACCUACAUAUGUTT against 9130019P16Rik | inactive: 1.27 |
| GGGAAUAAUGUCUAGUUUGTT against Fam126a | inactive: 0.215 |
| CCCAAACAACUUGUAAAUCTT against Cox20 | inactive: 0.31 |
| GGAUCUUGGAGAGAUUCAUTT against Bloc1s5 | inactive: 0.052 |
| GGAUGAAGUUCUUUUUCAATT against Pdcd11 | active: 2.28 |
| GCCCGGUAAAGGUAUCCAUTT against Trp53bp1 | inactive: 0.384 |
| GGGAAGUGCAUGCUCAUCUTT against Smarcal1 | inactive: -0.187 |
| GCUGUCCAAGUACGAGACATT against Atoh7 | inactive: 0.0721 |
| GCAAGUAAGCCUAAGGAAATT against Pcnp | inactive: 0.913 |
| GCAUUAAUGUGACAGCUACTT against Dhrs4 | inactive: 0.455 |
| GGCAACUGUGUUCUCACGATT against Ddx58 | inactive: -1.22 |
| GCAAUUAUCGUGGUAUCCUTT against Dgat1 | inactive: 0.49 |
| UGCUGUGCAGAAAGACUAGTT against Nkx2-6 | inactive: -1.95 |
